Columns and labels:
[1] = general procedure: Fmoc solid-phase peptide synthesis; Fmoc-PAL-PEG-PS; HBTU (Boc synthesis of 28); conditions: whole synthesis, scale 0.25 mmol
[2] = solid-phase peptide synthesis
[3] = solid-phase peptide synthesis; conditions: whole synthesis, analytical HPLC, LCMS, ESMS, scale of the general procedure 0.25 mmol
[4] = general procedure: Fmoc solid-phase peptide synthesis; NovaSyn TGA resin; HBTU (Boc synthesis of 28); conditions: whole synthesis

## Fmoc-NH-Cys(S^tBu)-Ile-Arg-Asp-Lys(ivDde)-Ser-NH2
[1]; from unfunctionalized resin
  isolated yield: 61% yield
[1]
  isolated mass: 157.5 mg

## H2N-Cys(S^tBu)-Ala-Asn(Manβ1→4GlcNAcβ1→4GlcNAcβ1)-Ala-Ser-NH2
[2]; late stage modification step
  difficulty met: perhaps due to epimerization of cysteine

## H2N-Gly-Asp-Ser-Ala-Trp-His-Leu-Gly-Glu-Leu-Val-Trp-Ser-Thr-Gly-S(CH2)2C(O)NH2
[3]
  final HPLC purity: >95%

## H2N-Ser-Leu-Orn-Ala-Asn-Lys-Glu-Thr-Thr-Glu-Arg-Ile-Asn-Gly-Cys-Ala-Asn(Manβ1→4GlcNAcβ1→4GlcNAcβ1)-Ala-Ser-NH2
[2]; coupling step, based on starting glycopeptide
  step yield: 78% yield

## H2N-Ser-Leu-Orn-Ala-Asn-Lys-Glu-Thr-Thr-Glu-Arg-Ile-Asn-Gly-SEt
[2]; whole synthesis, scale of the general procedure 0.25 mmol
  difficulty met: Solid phase synthesis of this peptide met with difficulties that were overcome using a pseudoproline
[4]
  isolated mass: 10.3 mg
[4]; from unfunctionalized hydroxymethyl resin, scale of the general procedure 0.25 mmol
  isolated yield: 32% yield

Reference: US7645454 (dated 2010)
